Source: US20260266848A1, “COMPOSITIONS AND METHODS FOR DIAGNOSING AND TREATING DYSTONIA” (Duke University, priority 2023, published 2026)

Experiments:
Format in all cases: cell-based, mouse
DYT-TOR1A MEF EVs [1] = test: Quantitative LC-MS/MS proteomics of MEF EVs, DYT-TOR1A genotype vs WT; conditions: Directionality of protein change in MEFs EV dataset between WT and DYT1 derived MEFs
WT MEF EVs = test: Quantitative LC-MS/MS proteomics of EVs from ISRIB-treated WT MEF cultures; conditions: Directionality of protein change in MEFs EV dataset in WT derived MEFs treated with ISRIB
DYT-TOR1A MEF EVs [2] = test: Quantitative LC-MS/MS proteomics of EVs from drug-treated DYT-TOR1A MEF cultures (ritonavir, salubrinal); conditions: for DYT1/DYT1 + RTV: Directionality of protein change in MEFs EV dataset in DYT1 derived MEFs treated with Ritonavir; for DYT1/DYT1 + Sal: Directionality of protein change in MEFs EV dataset in DYT1 derived MEFs treated with salubrinal; for RTV Corrective Direction: Ritonavir; for RTV Corrective Direction / Sal Corrective Direction: was treatment in MEF's in the direction of WT-like?; for Sal Corrective Direction: Salubrinal

Molecule	DYT1/WT (DYT-TOR1A MEF EVs [1])	WT + ISRIB/WT (WT MEF EVs)	DYT1/DYT1 + RTV (DYT-TOR1A MEF EVs [2])	DYT1/DYT1 + Sal (DYT-TOR1A MEF EVs [2])	RTV Corrective Direction (DYT-TOR1A MEF EVs [2])	Sal Corrective Direction (DYT-TOR1A MEF EVs [2])
Ap1b1 (protein, UniProt O35643 1-943, looked up) AP-1 complex subunit beta-1: MTDSKYFTTTKKGEIFELKAELNSDKKEKKKEAVKKVIASMTVGKDVSALFPDVVNCMQTDNLELKKLVYLYLMNYAKSQPDMAIMAVNTFVKDCEDPNPLIRALAVRTMGCIRVDKITEYLCEPLRKCLKDEDPYVRKTAAVCVAKLHDINAQLVEDQGFLDTLKDLISDSNPMVVANAVAALSEIAESHPSSNLLDLNPQSINKLLTALNECTEWGQIFILDCLANYMPKDDREAQSICERVTPRLSHANSAVVLSAVKVLMKFMEMLSKDLDYYATLLKKLAPPLVTLLSAEPELQYVALRNINLIVQKRPEILKHEMKVFFVKYNDPIYVKLEKLDIMIRLASQANIAQVLAELKEYATEVDVDFVRKAVRAIGRCAIKVEQSAERCVSTLLDLIQTKVNYVVQEAIVVIKDIFRKYPNKYESVIATLCENLDSLDEPEARAAMIWIVGEYAERIDNADELLESFLEGFHDESTQVQLQLLTAIVKLFLKKPTETQELVQQVLSLATQDSDNPDLRDRGYIYWRLLSTDPVAAKEVVLAEKPLISEETDLIEPTLLDELICYIGTLASVYHKPPNAFVEGGRGVVHKSLPPRTASSESTESPETAPAGAPAGDQPDVIPAQGDLLGDLLNLDLGPPVSGPPLAASSVQMGAVDLLGGGLDSLIGDSNFGAPSASVAAAPAPARLGAPISSGLSDLFDLTSGVGTLSGSYVAPKAVWLPAMKAKGLEISGTFTRQAGSISMDLQLTNKALQVMTDFAIQFNRNSFGLAPAAPLQVHVPLSPNQTVEISLPLNTVGSVLKMEPLNNLQVAVKNNIDVFYFSTLYPLHVLFVEDGKMDRQMFLATWKDIANENEAQFQIRDCPLNTEAASNKLQSSNIFTVAKRNVEGQDMLYQSLKLTNGIWVLAELRIQPGNPSFTLSLKCRAPEVSQHVYQAYETILKN	DOWN	DOWN	DOWN	DOWN	Yes	Yes
Cryab (protein, UniProt P23927 1-175, looked up) Alpha-crystallin B chain: MDIAIHHPWIRRPFFPFHSPSRLFDQFFGEHLLESDLFSTATSLSPFYLRPPSFLRAPSWIDTGLSEMRLEKDRFSVNLDVKHFSPEELKVKVLGDVIEVHGKHEERQDEHGFISREFHRKYRIPADVDPLTITSSLSSDGVLTVNGPRKQVSGPERTIPITREEKPAVAAAPKK	DOWN	–	DOWN	DOWN	Yes	Yes
Stom (protein, UniProt P54116 1-284, looked up) Stomatin: MSDKRQSSHVQSQRIPESFRENSKTELGACGWILVAASFFFVIITFPISIWICIKIVKEYERVIIFRLGRILQGGAKGPGLFFILPCTDSLIKVDMRTISFDIPPQEVLTKDSVTISVDGVVYYRVQNATLAVANITNADSATRLLAQTTLRNALGTKNLSQILSDREEIAHHMQSTLDDATDDWGIKVERVEIKDVKLPVQLQRAMAAEAEAAREARAKVIAAEGEMNASRALKEASMVITESPAALQLRYLQTLTTIAAEKNSTIVFPLPVDMLQGIMGSNH	DOWN	–	DOWN	DOWN	Yes	Yes
DIst (protein, UniProt Q9D2G2 69-454, looked up) Dihydrolipoyllysine-residue …: NDVITVQTPAFAESVTEGDVRWEKAVGDAVAEDEVVCEIETDKTSVQVPSPANGIIEALLVPDGGKVEGGTPLFTLRKTGAAPAKAKPAETPAPAHKAEPAAPAAPPPPAAPVLTQMPPVPSPSQPPSSKPVSAIKPTAAPPLAEAGAAKGLRSEHREKMNRMRQRIAQRLKEAQNTCAMLTTFNEVDMSNIQEMRARHKDAFLKKHNLKLGFMSAFVKASAFALQEQPVVNAVIDDATKEVVYRDYIDISVAVATPRGLVVPVIRNVETMNYADIERTINELGEKARKNELAIEDMDGGTFTISNGGVFGSLFGTPIINPPQSAILGMHAIFDRPVAVGGKVEVRPMMYVALTYDHRLIDGREAVTFLRKIKAAVEDPRVLLLDL	–	DOWN	–	–	Yes	Yes
Prpsap2 (protein, UniProt O60256 1-369, looked up) Phosphoribosyl pyrophosphate …: MFCVTPPELETKMNITKGGLVLFSANSNSSCMELSKKIAERLGVEMGKVQVYQEPNRETRVQIQESVRGKDVFIIQTVSKDVNTTIMELLIMVYACKTSCAKSIIGVIPYFPYSKQCKMRKRGSIVSKLLASMMCKAGLTHLITMDLHQKEIQGFFNIPVDNLRASPFLLQYIQEEIPDYRNAVIVAKSPASAKRAQSFAERLRLGIAVIHGEAQDAESDLVDGRHSPPMVRSVAAIHPSLEIPMLIPKEKPPITVVGDVGGRIAIIVDDIIDDVDSFLAAAETLKERGAYKIFVMATHGLLSSDAPRRIEESAIDEVVVTNTIPHEVQKLQCPKIKTVDISMILSEAIRRIHNGESMSYLFRNIGLDD	–	DOWN	–	–	Yes	Yes
Mrc2 (protein, UniProt Q64449 31-1479, looked up) C-type mannose receptor 2: ADSAAALLEPDVFLIFSQGMQGCLEAQGVQVRVTPVCNASLPAQRWKWVSRNRLFNLGATQCLGTGWPVTNTTVSLGMYECDREALSLRWQCRTLGDQLSLLLGARASNASKPGTLERGDQTRSGHWNIYGSEEDLCARPYYEVYTIQGNSHGKPCTIPFKYDNQWFHGCTSTGREDGHLWCATTQDYGKDERWGFCPIKSNDCETFWDKDQLTDSCYQFNFQSTLSWREAWASCEQQGADLLSITEIHEQTYINGLLTGYSSTLWIGLNDLDTSGGWQWSDNSPLKYLNWESDQPDNPGEENCGVIRTESSGGWQNHDCSIALPYVCKKKPNATVEPIQPDRWTNVKVECDPSWQPFQGHCYRLQAEKRSWQESKRACLRGGGDLLSIHSMAELEFITKQIKQEVEELWIGLNDLKLQMNFEWSDGSLVSFTHWHPFEPNNFRDSLEDCVTIWGPEGRWNDSPCNQSLPSICKKAGRLSQGAAEEDHGCRKGWTWHSPSCYWLGEDQVIYSDARRLCTDHGSQLVTITNRFEQAFVSSLIYNWEGEYFWTALQDLNSTGSFRWLSGDEVIYTHWNRDQPGYRRGGCVALATGSAMGLWEVKNCTSFRARYICRQSLGTPVTPELPGPDPTPSLTGSCPQGWVSDPKLRHCYKVFSSERLQEKKSWIQALGVCRELGAQLLSLASYEEEHFVAHMLNKIFGESEPESHEQHWFWIGLNRRDPREGHSWRWSDGLGFSYHNFARSRHDDDDIRGCAVLDLASLQWVPMQCQTQLDWICKIPRGVDVREPDIGRQGRLEWVRFQEAEYKFFEHHSSWAQAQRICTWFQADLTSVHSQAELDFLGQNLQKLSSDQEQHWWIGLHTLESDGRFRWTDGSIINFISWAPGKPRPIGKDKKCVYMTARQEDWGDQRCHTALPYICKRSNSSGETQPQDLPPSALGGCPSGWNQFLNKCFRIQGQDPQDRVKWSEAQFSCEQQEAQLVTIANPLEQAFITASLPNVTFDLWIGLHASQRDFQWIEQEPLLYTNWAPGEPSGPSPAPSGTKPTSCAVILHSPSAHFTGRWDDRSCTEETHGFICQKGTDPSLSPSPAATPPAPGAELSYLNHTFRLLQKPLRWKDALLLCESRNASLAHVPDPYTQAFLTQAARGLQTPLWIGLASEEGSRRYSWLSEEPLNYVSWQDEEPQHSGGCAYVDVDGTWRTTSCDTKLQGAVCGVSRGPPPRRINYRGSCPQGLADSSWIPFREHCYSFHMEVLLGHKEALQRCQKAGGTVLSILDEMENVFVWEHLQTAEAQSRGAWLGMNFNPKGGTLVWQDNTAVNYSNWGPPGLGPSMLSHNSCYWIQSSSGLWRPGACTNITMGVVCKLPRVEENSFLPSAALPESPVALVVVLTAVLLLLALMTAALILYRRRQSAERGSFEGARYSRSSHSGPAEATEKNILVSDMEMNEQQE	–	DOWN	–	DOWN	Yes	No
Lrrc59 (protein, UniProt Q922Q8 1-307, looked up) Leucine-rich …: MTKAGSKGGNLRDKLDGNELDLSLSDLNEVPVKELAALPKATVLDLSCNKLSTLPSDFCGLTHLVKLDLSKNKLQQLPADFGRLVNLQHLDLLNNRLVTLPVSFAQLKNLKWLDLKDNPLDPVLAKVAGDCLDEKQCKQCANKVLQHMKAVQADQERERQRRLEVEREAEKKREAKQQAKEAKERELRKREKAEEKERRRKEYDAQKASKREQEKKPKKEANQAPKSKSGSRPRKPPPRKHTRSWAVLKVLLLLLLLCVAGGLVVCRVTGLHQQPLCTSVNTIYDNAVQGLRHHEILQWVLQTDSQQ	DOWN	–	DOWN	–	Yes	No
Tubb1 (protein, UniProt A2AQ07 1-451, looked up) Tubulin beta-1 chain: MREIVHIQIGQCGNQIGAKFWEVIGEEHGIDCAGSYCGTSALQLERISVYYNEAYGKKYVPRAVLVDLEPGTMDSIRSSRLGVLFQPDSFVHGNSGAGNNWAKGHYTEGAELIENVMDVVRRESESCDCLQGFQIVHSLGGGTGSGMGTLLMNKIREEYPDRILNSFSVMPSPKVSDTVVEPYNAVLSIHQLIENTDACFCIDNEALYDICFRTLRLTTPTYGDLNHLVSLTMSGITTSLRFPGQLNADLRKLAVNMVPFPRLHFFMPGFAPLTAQGSQQYRALSVAELTQQMFDARNIMAACDPRRGRYLTVACIFRGKMSTKEVDQQLLSIQTRNSNCFVEWIPNNVKVAVCDIPPRGLNMAATFLGNNTAIQELFTRVSEHFSAMFRRRAFVHWYTSEGMDISEFGEAESDIHDLVSEYQQFQDVRAGLEDSEEDVEEAEVEAEDKDH	DOWN	–	–	–	No	No
Rbm3 (protein, UniProt O89086 1-153, looked up) RNA-binding protein 3: MSSEEGKLFVGGLNFNTDEQALEDHFSSFGPISEVVVVKDRETQRSRGFGFITFTNPEHASDAMRAMNGESLDGRQIRVDHAGKSARGSRGGAFGGRGRSYSRGGGDQGYGSGRYDSRPGGYGYGYGRSRDYSGSQGGYDRYSGGNYRDNYDN	DOWN	–	–	DOWN	No	Yes
